Results from PubChem BioAssay AID445 (National Center for Advancing Translational Sciences (NCATS), 2006).
The other results are listed elsewhere or left out. These are further read-outs of the screen, such as a control signal, another cell line or another target. No call is given for them. Most of these compounds were active or inconclusive in the main read-out, so they are no random draw. The note in brackets gives the kind of curve behind each potency; many fits are weak.

Assay: IkB Signaling
Settings: ABC-DLBCL IkBa-CBG/CBR dual luciferase ratio (green luciferase fused to IkBa over red control in OCI-Ly3 lymphoma cells), 4 h
Procedure, shortened: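 Luminescence ratio of IκBα-fused green versus native red beetle luciferase in OCI-Ly3 cells, 4 h post-doxycycline with compound; red signal alone, scaled from basal (0%) to zero light (-100%), flagged nonspecific or cytotoxic effects.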

[1] = measured here: control luc red channel unless noted
[2] = measured here: IkB-luc green channel
[3] = measured here: control luc red channel

In the case of `Cc1c(NC(=O)c2ccc(OC(C)C)cc2)cccc1-c1nc2ncccc2o1`, the AC50 [1] is reported as 31.6 µM [falling, partial curve].

With `Cc1ccc(S(=O)(=O)c2cn(CC(=O)Nc3ccc(C)c(Cl)c3)c3ccc(C)cc3c2=O)cc1` the AC50 [1] was 12.6 µM [falling, single point].

With `COc1cccc(C(=O)NCCSc2c(-c3ccc(F)cc3)[nH]c3ccccc23)c1OC` the AC50 [1] was 5.01 µM [falling, partial curve].

For `O=c1c2c(nc3nc(SCc4ccccc4)[nH]n13)CCC2`, the AC50 [1] was 1.58 µM [falling, full curve].

With `CCc1ccc(CNC(=O)CCSCc2ccccc2F)cc1` the AC50 [1] was 0.398 µM [falling, single point].

With `Cc1ccc(-n2nc(C)c3c2OC(N)=C(C#N)C3c2cccs2)cc1` (centres undefined) the AC50 [1] was 31.6 µM [falling, partial curve].

In the case of `Cc1cccc(NS(=O)(=O)c2ccc3[nH]c(=O)ccc3c2)c1C`, the AC50 [1] is reported as 0.2 µM [falling, full curve, poor fit].

For `Cc1oc2ccc(O)c(CN(C)Cc3ccccc3)c2c1C(=O)Nc1cccc(C(F)(F)F)c1`, the AC50 [1] was 7.94 µM [falling, partial curve].

In the case of `COc1ccc(C(=O)c2cn(CC(=O)Nc3ccc4c(c3)OCCO4)c3ccc(OC)cc3c2=O)cc1`, the AC50 [1] is reported as 1.58 µM [falling, full curve, poor fit].

For `COc1cccc(C2=CC(c3ccc(OC)c(OC)c3OC)n3ncnc3N2)c1` (centres undefined), the AC50 [1] was 1 µM [rising, full curve].

With `O=C(CSc1nc(-c2ccccc2)no1)N1CCN(c2ccccc2F)CC1` the AC50 [1] was 5.01 µM [falling, partial curve].

With `Cc1[nH]c2ccccc2c1C(c1ccccn1)N1CCC(C(N)=O)CC1` (centres undefined) the AC50 [1] was 39.8 µM [rising, single point] [measured here: IkB-luc green channel].

In the case of `Cc1ccc(C(C)C)c(OCC(=O)Nc2cccc(NC(=O)c3ccco3)c2)c1`, the AC50 [1] is reported as 12.6 µM [falling, partial curve].

For `Cc1ccc(-c2ccc(=O)n(Cc3cc(C)ccc3C)n2)cc1`, the AC50 [1] was 39.8 µM [falling, single point].

With `CCCc1cc(N2CCCC(C(=O)Nc3cc(Cl)ccc3OC)C2)n2ncnc2n1` (centres undefined) the AC50 [1] was 31.6 µM [falling, single point].

With `CC1=Nc2cc(C(=O)NCCc3ccc(Cl)cc3)ccc2Sc2ccc(C)cc21` the AC50 [2] was 6.31 µM [rising, single point] and the AC50 [3] was 39.8 µM [falling, partial curve, poor fit].

For `COc1ccc(OC)c(NC(=O)c2cc(-c3cc(Cl)ccc3O)n[nH]2)c1`, the AC50 [1] was 3.16 µM [falling, full curve, poor fit].

In the case of `COC(=O)C(Cc1c[nH]c2ccccc12)NC(=O)COc1ccc(Cl)cc1Cl` (centres undefined), the AC50 [1] is reported as 25.1 µM [falling, partial curve].

In the case of `CCN(c1cc(C)cc(C)c1)S(=O)(=O)c1nnc(NC(=O)c2cccs2)s1`, the AC50 [1] is reported as 10 µM [falling, partial curve].

In the case of `CCOc1ccc(-n2c(CCC(=O)O)ccc2-c2ccc(Br)cc2)cc1`, the AC50 [1] is reported as 15.8 µM [falling, partial curve].

In the case of `COc1ccccc1CNC(=O)c1ccc(N2CCCC2)c(NC(=O)NCc2ccccc2)c1`, the AC50 [1] is reported as 10 µM [falling, partial curve].

For `CCN(CC)S(=O)(=O)c1nnc(NC(=O)COc2ccccc2Cl)s1`, the AC50 [1] was 7.94 µM [falling, partial curve].

With `CCOc1ccc(C(=O)Nc2cccc(NC(=O)c3ccco3)c2)cc1Cl` the AC50 [1] was 1.26 µM [falling, full curve].

With `CCC(C(=O)N1CCN(c2ccccc2)CC1)n1nc(C)n2c(cc3sccc32)c1=O` (centres undefined) the AC50 [1] was 39.8 µM [falling, single point].

In the case of `COc1ccc(C(=O)NCc2nnc(SCC(=O)Nc3ccccc3)n2-c2ccc(F)cc2)cc1`, the AC50 [1] is reported as 12.6 µM [falling, partial curve].

In the case of `CCOc1ccc(CCNC(=O)CN2C(=O)C(CC)Oc3ccccc32)cc1OCC` (centres undefined), the AC50 [1] is reported as 0.126 µM [rising, full curve].

With `COc1ccc(OC)c(NC(=O)CSc2ccnc(=O)[nH]2)c1` the AC50 [1] was 501 nM [rising, full curve, poor fit] [measured here: IkB-luc green channel].

For `COc1ccc(NC(=O)c2c(NCc3ccc(C)o3)sc3c2CCC(C)C3)c(OC)c1` (centres undefined), the AC50 [1] was 25.1 µM [falling, single point].

For `Cn1c(=O)oc2cc(S(=O)(=O)CCC(=O)N3CCN(c4ccccc4)CC3)ccc21`, the AC50 [1] was 39.8 µM [falling, single point].

In the case of `COc1ccccc1-c1cc(C(=O)Nc2sc3c(c2C#N)CCCC3)no1`, the AC50 [1] is reported as 3.16 µM [falling, full curve].

In the case of `CC(=O)c1ccc(Oc2cc(C)nc(-n3nc(C)cc3C)n2)cc1`, the AC50 [2] is reported as 6.31 µM [rising, single point] and the AC50 [3] is reported as 1 µM [rising, single point].

In the case of `COc1ccc(C2CC(c3c(O)n(C4CCCCC4)c(=O)[nH]c3=O)=Nc3ccccc3S2)cc1` (centres undefined), the AC50 [1] is reported as 31.6 µM [falling, single point].

With `CCOc1cc(N2CCOCC2)c(OCC)cc1NC(=O)COc1cccc2cccnc12` the AC50 [1] was 10 µM [falling, partial curve].

For `CC(C)Cn1c(=O)c2ccccc2n2c(CCC(=O)Nc3cccc(Cl)c3)nnc12`, the AC50 [1] was 10 µM [falling, partial curve].

For `O=C(Cc1ccccc1)Nc1nc2ccccc2[nH]1`, the AC50 [1] was 12.6 µM [falling, partial curve].

In the case of `Cc1nc2c(c(=O)n1Cc1ccccc1Cl)c1nc3ccccc3nc1n2Cc1ccco1`, the AC50 [1] is reported as 31.6 µM [rising, single point] [measured here: IkB-luc green channel].

With `CCC(CC)c1nn2c(=O)cc(COc3ccc(NC(=O)c4ccccc4Cl)cc3)nc2s1` the AC50 [1] was 7.94 µM [falling, full curve, poor fit].

With `Cc1cccc(CNS(=O)(=O)c2ccc3[nH]c(=O)ccc3c2)c1` the AC50 [1] was 39.8 µM [falling, single point].

In the case of `COc1ccc(Cn2c(=O)[nH]c3cc(C(=O)N4CCN(c5cc(C)ccc5C)CC4)ccc3c2=O)cc1`, the AC50 [1] is reported as 3.16 µM [falling, full curve].

For `COc1ccc(C)cc1NC(=O)c1cc(S(=O)(=O)NC2CCCCCC2)ccc1F`, the AC50 [1] was 31.6 µM [falling, single point].

In the case of `Cc1ccc(Cn2nnc3c(=O)n(CC(=O)OCc4ccccc4)cnc32)cc1`, the AC50 [1] is reported as 31.6 µM [falling, single point].

In the case of `CCC1CN(C(=O)Nc2cc(C)cc(C)c2)c2ccccc2O1` (centres undefined), the AC50 [1] is reported as 10 µM [falling, partial curve].

In the case of `Cc1c(C)n(Cc2ccccc2)c2ccc(C(=O)NCc3ccco3)cc12`, the AC50 [1] is reported as 7.94 µM [rising, partial curve].

For `Fc1ccc(CSc2ncnc3nc[nH]c23)cc1`, the AC50 [1] was 0.631 µM [rising, full curve].

For `Cc1cccc(CN2CCc3nc(N4CCN(c5ccccn5)CC4)ncc3C2)c1`, the AC50 [1] was 20 µM [falling, partial curve, poor fit].

With `O=C1C2CC=C(Cl)CC2C(=O)N1CC1Cc2ccccc2CO1` (centres undefined) the AC50 [1] was 5.01 µM [falling, partial curve].

For `O=C(NCCSc1c(-c2ccc(F)cc2)[nH]c2ccccc12)c1ccc(S(=O)(=O)N2CCOCC2)cc1`, the AC50 [1] was 7.94 µM [falling, full curve].

In the case of `CC(=O)c1ccc(NC(=O)CCc2c(C)nc3cc(-c4ccc(Cl)cc4)nn3c2C)cc1`, the AC50 [1] is reported as 0.0398 µM [falling, full curve].

In the case of `O=C(C1CCCCC1)N1CCC(c2nc3c(nnn3Cc3c(F)cccc3Cl)c(=O)[nH]2)CC1`, the AC50 [1] is reported as 25.1 µM [falling, partial curve].

In the case of `O=C(C1CC1)N1CCN(c2nc3ccc(F)cc3s2)CC1`, the AC50 [1] is reported as 1 µM [rising, full curve].

With `CCCCOc1ccc(CNC(=O)c2cnc3sc(N4CCOCC4)nn3c2=O)cc1` the AC50 [1] was 39.8 µM [falling, single point].

In the case of `COc1cccc(N=C2SC(C(=O)Nc3ccc(F)cc3)CC(=O)N2C)c1` (centres undefined), the AC50 [1] is reported as 25.1 µM [falling, partial curve].

In the case of `O=C(CCn1ccc2cc(S(=O)(=O)N3CCCC3)ccc21)NCc1cccc(Br)c1`, the AC50 [1] is reported as 39.8 µM [falling, single point].

In the case of `Cc1cc(N2CCC(C)CC2)n2ncc(-c3ccccc3)c2n1`, the AC50 [1] is reported as 0.0316 µM [falling, full curve].

For `Cc1ccc(C(=O)NCC(c2cccnc2)N2CCc3ccccc32)cc1C` (centres undefined), the AC50 [1] was 10 µM [falling, partial curve].

For `Cc1ccc(-c2nc3ncccc3o2)cc1NC(=O)c1cccc(OCC(C)C)c1`, the AC50 [1] was 1 µM [falling, full curve].

With `COc1cc(OC)c(NS(=O)(=O)c2ccc3c(c2)NC(=O)CCS3)cc1Cl` the AC50 [1] was 12.6 µM [falling, partial curve].

In the case of `CC(=O)Nc1ccc(C2Nc3c(C)cc(C)cc3-c3cc(C)nn32)cc1` (centres undefined), the AC50 [1] is reported as 10 µM [falling, partial curve].

In the case of `Cc1cc(C)cc(Nc2sc(C(=O)c3ccccc3)c(N)c2S(=O)(=O)c2ccccc2)c1`, the AC50 [1] is reported as 5.01 µM [falling, full curve, poor fit].

With `O=C(Nc1nnc(-c2ccccc2Cl)o1)c1cccnc1` the AC50 [1] was 15.8 µM [falling, partial curve].

In the case of `O=C(COc1ccccc1-c1nc(-c2ccccc2)no1)Nc1ccccc1[N+](=O)[O-]`, the AC50 [1] is reported as 20 µM [falling, partial curve].
